Experimental data: article PMC10911177, “Exploring the ATG9A interactome uncovers interaction with VPS13A” (Journal of cell science, 2024)

Chains of the proteins cited; added tags and fusions are not shown.
UniProt O95573: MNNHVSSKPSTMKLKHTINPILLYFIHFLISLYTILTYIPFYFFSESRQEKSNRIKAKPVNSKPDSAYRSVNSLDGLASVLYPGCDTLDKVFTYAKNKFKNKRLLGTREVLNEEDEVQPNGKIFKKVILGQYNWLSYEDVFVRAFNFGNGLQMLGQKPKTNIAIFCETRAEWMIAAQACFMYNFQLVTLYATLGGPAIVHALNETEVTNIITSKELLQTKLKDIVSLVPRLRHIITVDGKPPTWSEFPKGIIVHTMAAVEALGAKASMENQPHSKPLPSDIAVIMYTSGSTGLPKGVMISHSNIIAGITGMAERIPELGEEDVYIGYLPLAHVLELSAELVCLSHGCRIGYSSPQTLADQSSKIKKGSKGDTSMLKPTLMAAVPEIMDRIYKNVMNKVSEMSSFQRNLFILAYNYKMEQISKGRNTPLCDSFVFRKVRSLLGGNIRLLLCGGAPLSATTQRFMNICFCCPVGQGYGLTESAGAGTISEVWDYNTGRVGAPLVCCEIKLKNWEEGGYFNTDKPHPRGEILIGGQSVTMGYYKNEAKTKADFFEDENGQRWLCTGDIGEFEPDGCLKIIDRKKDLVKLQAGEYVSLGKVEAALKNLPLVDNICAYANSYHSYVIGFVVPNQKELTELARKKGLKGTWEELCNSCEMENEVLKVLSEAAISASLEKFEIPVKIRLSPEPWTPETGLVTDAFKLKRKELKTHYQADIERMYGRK
UniProt Q709C8: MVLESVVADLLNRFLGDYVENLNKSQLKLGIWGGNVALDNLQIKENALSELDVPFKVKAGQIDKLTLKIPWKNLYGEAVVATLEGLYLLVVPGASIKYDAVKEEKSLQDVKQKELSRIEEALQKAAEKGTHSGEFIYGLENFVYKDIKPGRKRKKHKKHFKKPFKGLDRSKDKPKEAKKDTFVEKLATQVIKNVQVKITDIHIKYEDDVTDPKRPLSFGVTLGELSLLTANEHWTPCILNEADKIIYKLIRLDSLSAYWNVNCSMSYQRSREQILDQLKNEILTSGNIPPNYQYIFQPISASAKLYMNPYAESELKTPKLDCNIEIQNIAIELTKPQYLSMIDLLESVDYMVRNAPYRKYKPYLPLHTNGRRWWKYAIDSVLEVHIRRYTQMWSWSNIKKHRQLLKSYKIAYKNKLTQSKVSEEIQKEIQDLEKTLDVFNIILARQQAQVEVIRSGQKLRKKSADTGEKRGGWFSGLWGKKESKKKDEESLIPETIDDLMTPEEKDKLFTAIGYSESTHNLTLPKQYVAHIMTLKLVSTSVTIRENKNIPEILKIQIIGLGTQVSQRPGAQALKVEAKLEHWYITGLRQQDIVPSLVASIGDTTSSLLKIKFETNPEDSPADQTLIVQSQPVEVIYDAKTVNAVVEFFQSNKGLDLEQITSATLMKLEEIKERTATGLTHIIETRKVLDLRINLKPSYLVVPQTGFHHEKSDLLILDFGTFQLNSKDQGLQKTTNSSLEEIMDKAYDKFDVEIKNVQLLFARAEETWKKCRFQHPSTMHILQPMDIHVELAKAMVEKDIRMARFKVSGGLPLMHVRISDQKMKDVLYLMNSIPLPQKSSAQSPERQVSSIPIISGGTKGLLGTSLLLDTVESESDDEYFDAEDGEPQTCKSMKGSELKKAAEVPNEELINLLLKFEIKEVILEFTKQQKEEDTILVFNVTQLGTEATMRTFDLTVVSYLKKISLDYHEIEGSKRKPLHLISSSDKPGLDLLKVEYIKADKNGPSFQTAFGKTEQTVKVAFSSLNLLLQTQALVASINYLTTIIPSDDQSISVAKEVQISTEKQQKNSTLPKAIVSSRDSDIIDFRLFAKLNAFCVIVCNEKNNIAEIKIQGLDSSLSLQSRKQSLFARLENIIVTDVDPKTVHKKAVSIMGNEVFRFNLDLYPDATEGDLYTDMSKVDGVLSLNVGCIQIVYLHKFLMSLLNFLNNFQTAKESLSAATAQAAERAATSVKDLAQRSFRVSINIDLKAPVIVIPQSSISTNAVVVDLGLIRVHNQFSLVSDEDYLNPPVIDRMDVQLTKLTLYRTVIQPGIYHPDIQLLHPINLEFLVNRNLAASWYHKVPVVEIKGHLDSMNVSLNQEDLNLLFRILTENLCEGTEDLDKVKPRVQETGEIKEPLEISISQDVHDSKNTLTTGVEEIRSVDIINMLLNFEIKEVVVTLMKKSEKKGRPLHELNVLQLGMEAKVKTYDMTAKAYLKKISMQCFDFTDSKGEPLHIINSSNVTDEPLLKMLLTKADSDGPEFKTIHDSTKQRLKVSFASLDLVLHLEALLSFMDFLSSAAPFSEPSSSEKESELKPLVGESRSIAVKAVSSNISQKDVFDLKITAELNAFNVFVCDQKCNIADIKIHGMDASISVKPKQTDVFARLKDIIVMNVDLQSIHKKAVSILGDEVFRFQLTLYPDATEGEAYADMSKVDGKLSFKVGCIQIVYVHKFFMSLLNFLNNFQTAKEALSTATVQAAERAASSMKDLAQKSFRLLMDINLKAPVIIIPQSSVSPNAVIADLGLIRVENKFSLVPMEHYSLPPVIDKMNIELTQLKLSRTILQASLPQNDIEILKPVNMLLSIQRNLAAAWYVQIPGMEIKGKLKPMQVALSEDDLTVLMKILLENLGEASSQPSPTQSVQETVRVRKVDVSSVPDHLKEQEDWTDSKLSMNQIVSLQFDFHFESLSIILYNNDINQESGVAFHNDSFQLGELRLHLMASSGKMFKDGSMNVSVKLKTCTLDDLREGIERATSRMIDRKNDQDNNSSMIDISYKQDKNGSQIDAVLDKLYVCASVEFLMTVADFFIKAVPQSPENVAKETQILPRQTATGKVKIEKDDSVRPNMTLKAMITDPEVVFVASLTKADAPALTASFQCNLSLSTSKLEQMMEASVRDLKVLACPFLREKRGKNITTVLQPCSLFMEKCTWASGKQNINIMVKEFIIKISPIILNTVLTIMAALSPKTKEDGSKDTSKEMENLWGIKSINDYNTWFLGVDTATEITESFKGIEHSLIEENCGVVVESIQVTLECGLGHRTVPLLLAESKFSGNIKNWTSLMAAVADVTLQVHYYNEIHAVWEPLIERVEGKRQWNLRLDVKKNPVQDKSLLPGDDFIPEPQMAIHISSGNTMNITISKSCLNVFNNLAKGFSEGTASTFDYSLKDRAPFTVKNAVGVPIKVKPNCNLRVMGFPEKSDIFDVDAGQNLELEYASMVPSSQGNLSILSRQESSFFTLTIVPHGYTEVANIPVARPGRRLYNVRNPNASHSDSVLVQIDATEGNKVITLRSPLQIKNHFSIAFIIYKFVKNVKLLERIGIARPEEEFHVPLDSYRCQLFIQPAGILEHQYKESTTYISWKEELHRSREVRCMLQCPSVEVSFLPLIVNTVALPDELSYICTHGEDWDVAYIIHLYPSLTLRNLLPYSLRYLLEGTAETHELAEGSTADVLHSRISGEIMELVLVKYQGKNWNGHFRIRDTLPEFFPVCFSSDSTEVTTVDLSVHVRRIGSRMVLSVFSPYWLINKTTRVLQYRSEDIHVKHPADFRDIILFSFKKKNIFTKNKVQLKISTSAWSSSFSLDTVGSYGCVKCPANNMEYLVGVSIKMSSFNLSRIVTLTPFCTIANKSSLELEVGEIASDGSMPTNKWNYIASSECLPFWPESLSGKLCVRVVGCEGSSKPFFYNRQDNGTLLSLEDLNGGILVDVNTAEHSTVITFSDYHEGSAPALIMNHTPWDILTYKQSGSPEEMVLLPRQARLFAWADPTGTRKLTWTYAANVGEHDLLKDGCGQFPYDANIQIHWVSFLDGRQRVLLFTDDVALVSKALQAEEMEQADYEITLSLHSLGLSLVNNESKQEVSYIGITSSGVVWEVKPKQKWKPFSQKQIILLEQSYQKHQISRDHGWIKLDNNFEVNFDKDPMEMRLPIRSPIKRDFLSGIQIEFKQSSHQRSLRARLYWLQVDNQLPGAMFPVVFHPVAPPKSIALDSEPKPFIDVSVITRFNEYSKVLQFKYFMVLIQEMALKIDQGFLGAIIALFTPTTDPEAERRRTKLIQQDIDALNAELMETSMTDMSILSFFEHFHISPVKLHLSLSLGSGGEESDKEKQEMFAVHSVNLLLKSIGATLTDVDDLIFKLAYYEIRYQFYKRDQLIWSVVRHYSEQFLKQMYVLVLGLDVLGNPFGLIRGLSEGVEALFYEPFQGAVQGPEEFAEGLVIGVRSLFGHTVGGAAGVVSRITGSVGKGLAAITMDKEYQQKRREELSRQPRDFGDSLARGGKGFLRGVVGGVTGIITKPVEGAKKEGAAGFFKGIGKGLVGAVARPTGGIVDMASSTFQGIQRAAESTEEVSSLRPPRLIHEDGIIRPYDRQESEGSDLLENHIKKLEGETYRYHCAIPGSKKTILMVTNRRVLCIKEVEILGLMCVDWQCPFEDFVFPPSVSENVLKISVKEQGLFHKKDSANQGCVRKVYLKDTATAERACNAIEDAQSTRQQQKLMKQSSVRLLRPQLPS

T1: ATG9A (endogenous) (human (endogenous in HEK293A)) (UniProt Q7Z3C6)
T1 sequence: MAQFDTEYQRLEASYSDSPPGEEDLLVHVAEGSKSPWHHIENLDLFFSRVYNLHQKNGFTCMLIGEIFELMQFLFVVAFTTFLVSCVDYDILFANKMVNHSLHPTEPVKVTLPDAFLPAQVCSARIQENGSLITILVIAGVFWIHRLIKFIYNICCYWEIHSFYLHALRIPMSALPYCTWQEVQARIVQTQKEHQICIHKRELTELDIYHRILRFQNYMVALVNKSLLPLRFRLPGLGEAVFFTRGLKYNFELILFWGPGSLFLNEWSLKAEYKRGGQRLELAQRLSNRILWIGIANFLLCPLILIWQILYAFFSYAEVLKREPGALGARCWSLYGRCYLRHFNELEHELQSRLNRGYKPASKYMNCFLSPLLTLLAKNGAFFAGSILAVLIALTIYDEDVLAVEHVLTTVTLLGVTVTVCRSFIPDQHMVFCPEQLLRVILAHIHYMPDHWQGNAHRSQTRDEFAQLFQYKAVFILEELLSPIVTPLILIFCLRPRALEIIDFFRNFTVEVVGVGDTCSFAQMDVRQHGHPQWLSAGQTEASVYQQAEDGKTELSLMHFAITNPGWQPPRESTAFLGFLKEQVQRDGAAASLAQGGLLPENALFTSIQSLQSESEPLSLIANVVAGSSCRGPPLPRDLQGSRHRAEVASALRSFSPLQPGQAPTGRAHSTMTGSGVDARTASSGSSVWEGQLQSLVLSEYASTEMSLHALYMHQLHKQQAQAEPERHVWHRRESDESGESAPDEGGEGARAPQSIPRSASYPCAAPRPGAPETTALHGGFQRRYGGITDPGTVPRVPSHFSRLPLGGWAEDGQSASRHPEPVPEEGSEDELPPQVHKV

B1: Flotilin-2 (protein, UniProt Q14254 1-428)
chain: MGNCHTVGPNEALVVSGGCCGSDYKQYVFGGWAWAWWCISDTQRISLEIMTLQPRCEDVETAEGVALTVTGVAQVKIMTEKELLAVACEQFLGKNVQDIKNVVLQTLEGHLRSILGTLTVEQIYQDRDQFAKLVREVAAPDVGRMGIEILSFTIKDVYDKVDYLSSLGKTQTAVVQRDADIGVAEAERDAGIREAECKKEMLDVKFMADTKIADSKRAFELQKSAFSEEVNIKTAEAQLAYELQGAREQQKIRQEEIEIEVVQRKKQIAVEAQEILRTDKELIATVRRPAEAEAHRIQQIAEGEKVKQVLLAQAEAEKIRKIGEAEAAVIEAMGKAEAERMKLKAEAYQKYGDAAKMALVLEALPQIAAKIAAPLTKVDEIVVLSGDNSKVTSEVNRLLAELPASVHALTGVDLSKIPLIKKATGVQV
B2: Flotilin-1 (protein, UniProt O75955 1-427)
chain: MFFTCGPNEAMVVSGFCRSPPVMVAGGRVFVLPCIQQIQRISLNTLTLNVKSEKVYTRHGVPISVTGIAQVKIQGQNKEMLAAACQMFLGKTEAEIAHIALETLEGHQRAIMAHMTVEEIYKDRQKFSEQVFKVASSDLVNMGISVVSYTLKDIHDDQDYLHSLGKARTAQVQKDARIGEAEAKRDAGIREAKAKQEKVSAQYLSEIEMAKAQRDYELKKAAYDIEVNTRRAQADLAYQLQVAKTKQQIEEQRVQVQVVERAQQVAVQEQEIARREKELEARVRKPAEAERYKLERLAEAEKSQLIMQAEAEAASVRMRGEAEAFAIGARARAEAEQMAKKAEAFQLYQEAAQLDMLLEKLPQVAEEISGPLTSANKITLVSSGSGTMGAAKVTGEVLDILTRLPESVERLTGVSISQVNHKPLRTA
B3: cancer-related nucleoside-triphosphatase (protein, UniProt Q9BSD7 1-190)
chain: MARHVFLTGPPGVGKTTLIHKASEVLKSSGVPVDGFYTEEVRQGGRRIGFDVVTLSGTRGPLSRVGLEPPPGKRECRVGQYVVDLTSFEQLALPVLRNADCSSGPGQRVCVIDEIGKMELFSQLFIQAVRQTLSTPGTIILGTIPVPKGKPLALVEEIRNRKDVKVFNVTKENRNHLLPDIVTCVQSSRK
B4: ACSL1 (endogenous) (protein, UniProt P33121 1-698)
chain: MQAHELFRYFRMPELVDFRQYVRTLPTNTLMGFGAFAALTTFWYATRPKPLKPPCDLSMQSVEVAGSGGARRSALLDSDEPLVYFYDDVTTLYEGFQRGIQVSNNGPCLGSRKPDQPYEWLSYKQVAELSECIGSALIQKGFKTAPDQFIGIFAQNRPEWVIIEQGCFAYSMVIVPLYDTLGNEAITYIVNKAELSLVFVDKPEKAKLLLEGVENKLIPGLKIIVVMDAYGSELVERGQRCGVEVTSMKAMEDLGRANRRKPKPPAPEDLAVICFTSGTTGNPKGAMVTHRNIVSDCSAFVKATENTVNPCPDDTLISFLPLAHMFERVVECVMLCHGAKIGFFQGDIRLLMDDLKVLQPTVFPVVPRLLNRMFDRIFGQANTTLKRWLLDFASKRKEAELRSGIIRNNSLWDRLIFHKVQSSLGGRVRLMVTGAAPVSATVLTFLRAALGCQFYEGYGQTECTAGCCLTMPGDWTAGHVGAPMPCNLIKLVDVEEMNYMAAEGEGEVCVKGPNVFQGYLKDPAKTAEALDKDGWLHTGDIGKWLPNGTLKIIDRKKHIFKLAQGEYIAPEKIENIYMRSEPVAQVFVHGESLQAFLIAIVVPDVETLCSWAQKRGFEGSFEELCRNKDVKKAILEDMVRLGKDSGLKPFEQVKGITLHPELFSIDNGLLTPTMKAKRPELRNYFRSQIDDLYSTIKV

target: T1, ATG9A (endogenous) (human (endogenous in HEK293A)); experiment: affinity purification with mass spectrometry; IP of endogenous ATG9A with Armenian hamster anti-ATG9A on protein A Dynabeads after solubilisation in 1% Triton X-100 or 1% LMNG; control hamster IgM; LC-MS/MS, LFQ

Row | binding | Molecule
1 | binds | ACSL3 (endogenous) (from UniProt O95573 1-720)
2 | binds | VPS13C (endogenous) (from UniProt Q709C8 1-3753)
3 | binds | VPS13A (endogenous) (from UniProt Q96RL7 1-3174)
4 | binds | B1
5 | binds | B2
6 | binds | B3
7 | binds | B4

No constants are given. Whether binding was seen depends on the method and setting. Binding seen in cells or lysates may run through a third protein. A yes stands for co-enrichment or nearness to the bait. Other partners may have been found.
